Taken from: PubChem BioAssay AID1259276 (Sanger Institute, 2017)
This is an unselected part of 794 deposited reagents. Over the whole deposit, 24 (3%) were called active. 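Calls come only from the siRNA-alone arm; drug synergy scores do not affect them.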 A number with no mark means an inactive call. No viability above 1 is reported: the scale is capped. Further read-outs or replicates are left out here. Not stated in the record: the amount of reagent, the time to read-out.

Assay: 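Kinase knock-downs that reduce colorectal cancer cell viability alone or with anchor drugs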 (primary screen)
Cell system: human C2BBe1 colorectal cancer cells
Reagents: siRNA pool against human genes
Conditions: DMSO vehicle, or one anchor drug: BYL719 at 1 µM, cetuximab at 5 µg/ml, or trametinib at 10 nM; exposure length not stated
Detection: 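Cell viability as a fraction of non-targeting control wells, mean of replicates, also as a control-based robust z-score, plus a synergy score for each anchor drug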
Reading the numbers: viability robust z-score, siRNA alone and viability vs control, siRNA alone: higher = more viable cells after knock-down
Active means: 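Called essential when knock-down alone gives a viability robust z-score below -3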
Calls: active = essential (siRNA alone); inactive = no change (siRNA alone)

LIMK2 (LIM domain kinase 2) showed viability robust z-score, siRNA alone 0.472; viability vs control, siRNA alone 1.
Against CSNK1G1 (casein kinase 1 gamma 1) the deposit lists viability robust z-score, siRNA alone 0.472; viability vs control, siRNA alone 1.
Knock-down of GOLGA5 (golgin A5) gave: viability robust z-score, siRNA alone 0.472; viability vs control, siRNA alone 1.
After knock-down of TTBK2 (tau tubulin kinase 2) the results were viability robust z-score, siRNA alone 0.472; viability vs control, siRNA alone 1.
GUCY2F (guanylate cyclase 2F, retinal) scored viability robust z-score, siRNA alone 0.472; viability vs control, siRNA alone 1.
After knock-down of NIM1K (NIM1 serine/threonine protein kinase), the record shows viability robust z-score, siRNA alone 0.472; viability vs control, siRNA alone 1.
PACSIN1 (protein kinase C and casein kinase substrate in neurons 1) gave viability robust z-score, siRNA alone 0.472; viability vs control, siRNA alone 1.
After knock-down of PAK3 (p21 (RAC1) activated kinase 3) the results were viability robust z-score, siRNA alone 0.472; viability vs control, siRNA alone 1.
PFKM (phosphofructokinase, muscle) scored viability robust z-score, siRNA alone 0.286; viability vs control, siRNA alone 0.988.
For PRKX (protein kinase cAMP-dependent X-linked catalytic subunit), the entry reads viability robust z-score, siRNA alone 0.472; viability vs control, siRNA alone 1.
With knock-down of BRD2 (bromodomain containing 2) the results were viability robust z-score, siRNA alone 0.472; viability vs control, siRNA alone 1.
For EIF2AK1 (eukaryotic translation initiation factor 2 alpha kinase 1), the entry reads viability robust z-score, siRNA alone 0.472; viability vs control, siRNA alone 1.

Part of the list above in another layout:
{"gene":"CSNK1G1 (casein kinase 1 gamma 1)","viability robust z-score, siRNA alone":0.472,"viability vs control, siRNA alone":1}
{"gene":"GOLGA5 (golgin A5)","viability robust z-score, siRNA alone":0.472,"viability vs control, siRNA alone":1}

Further records follow.
Silencing of NRBP1 (nuclear receptor binding protein 1) resulted in: viability robust z-score, siRNA alone 0.315; viability vs control, siRNA alone 0.99.
RPS6KB2 (ribosomal protein S6 kinase B2) scored viability robust z-score, siRNA alone 0.472; viability vs control, siRNA alone 1.
SMC1A (structural maintenance of chromosomes 1A) scored viability robust z-score, siRNA alone 0.472; viability vs control, siRNA alone 1.
Against PKMYT1 (protein kinase, membrane associated tyrosine/threonine 1), the entry reads viability robust z-score, siRNA alone 0.472; viability vs control, siRNA alone 1.
For PIP5K1A (phosphatidylinositol-4-phosphate 5-kinase type 1 alpha), the entry reads viability robust z-score, siRNA alone -1.78; viability vs control, siRNA alone 0.858.
For PIK3R4 (phosphoinositide-3-kinase regulatory subunit 4), the entry reads viability robust z-score, siRNA alone 0.472; viability vs control, siRNA alone 1.
Depletion of GUCY2D (guanylate cyclase 2D, retinal) came out at: viability robust z-score, siRNA alone -2.4; viability vs control, siRNA alone 0.819.
